Reference: US20250283871A1, “COMPOSITIONS AND METHODS FOR MODULATING THE INTERACTION BETWEEN SS18-SSX FUSION ONCOPROTEIN AND NUCLEOSOMES” (Dana-Farber Cancer Institute, Inc., priority 2020, published 2025)

System: BAF complex subunits and histone proteins
Test: Mass spectrometry proteomics of purified HA-SS18 WT and HA-SS18-SSX1 complexes (Tables 5A-5E)
Parameters: species or system human
Conditions: for Total / Unique: HA-SS18SSX1_CHR_peptides; for Total: total peptides of the identified protein; for Unique: unique peptides of the identified protein
[1] = HA-SS18SSX1_NE_peptides: protein co-purified with HA-SS18-SSX1 BAF complexes from soluble nuclear extract (NE), HEK-293T cells
[2] = HA-SS18SSX1_CHR_peptides: protein identified in the HA-SS18-SSX1 purification from solubilized chromatin (CHR), HEK-293T
[3] = HA-SS18WT_CHR_peptides: protein identified in HA-SS18 WT BAF complex purification from nuclease-treated solubilized chromatin (CHR), HEK-293T
[4] = HA-SS18WT_CHR_peptides: HA-SS18 WT purification from nuclease-treated solubilized chromatin (CHR), HEK-293T, label = protein identified
[5] = HA-SS18WT_NE_peptides: proteins co-purified with HA-SS18 WT from nuclear extract (NE), HEK-293T
[6] = HA-SS18SSX1 purification, NE (soluble nuclear extract) fraction, HEK-293T, peptides per identified protein
[7] = HA-SS18WT_NE_peptides: HA-SS18 WT complexes purified from nuclear extract (NE), HEK-293T, label = protein identified (Gene Symbol)
[8] = HA-SS18SSX1_NE_peptides (Table 5B), HA-SS18-SSX1 BAF complex purification from soluble nuclear extract, HEK-293T
[9] = HA-SS18SSX1_CHR_peptides: proteins found in HA-SS18-SSX1 BAF complex purification from solubilized chromatin (CHR), HEK-293T

KCNN4
Total (peptides) [1]: 1 | Unique (peptides) [1]: 1

KDM5A
Total (total peptides) [2]: 6 | Unique (unique peptides) [2]: 5

KDM5B
Total: 2 | Unique: 2

KIAA1429
Total: 4 | Unique: 4 | Total (total peptides) [3]: 1 | Unique (unique peptides) [3]: 1

KIDINS220
Total (peptides) [1]: 1 | Unique (peptides) [1]: 1

KRI1
Total: 1 | Unique: 1 | Total (peptides) [4]: 3 | Unique (peptides) [4]: 3

KRTCAP2
Total (peptides) [1]: 1 | Unique (peptides) [1]: 1 | Total (peptides) [5]: 1 | Unique (peptides) [5]: 1

LAS1L
Total (total peptides) [2]: 10 | Unique (unique peptides) [2]: 9 | Total (total peptides) [6]: 3 | Unique (unique peptides) [6]: 3 | Total (peptides) [4]: 4 | Unique (peptides) [4]: 4

LENG8
Total (total peptides) [2]: 5 | Unique (unique peptides) [2]: 2 | Total (peptides) [4]: 4 | Unique (peptides) [4]: 2

LLGL1
Total (peptides) [1]: 1 | Unique (peptides) [1]: 1

MCM3AP
Total: 2 | Unique: 2 | Total (total peptides) [6]: 3 | Unique (unique peptides) [6]: 3 | Total (peptides) [7]: 4 | Unique (peptides) [7]: 4

MDC1
Total (total peptides) [2]: 22 | Unique (unique peptides) [2]: 20 | Total (peptides) [4]: 7 | Unique (peptides) [4]: 7

MDN1
Total (total peptides) [2]: 5 | Unique (unique peptides) [2]: 5 | Total (peptides) [4]: 4 | Unique (peptides) [4]: 3 | Total (peptides) [5]: 1 | Unique (peptides) [5]: 1

MGA
Total (total peptides) [2]: 6 | Unique (unique peptides) [2]: 6

MGST3
Total: 1 | Unique: 1 | Total (peptides) [1]: 1 | Unique (peptides) [1]: 1

MKI67
Total (total peptides) [2]: 20 | Unique (unique peptides) [2]: 19 | Total (peptides) [4]: 10 | Unique (peptides) [4]: 10 | Total (peptides) [5]: 1 | Unique (peptides) [5]: 1

MRPL28
Total: 2 | Unique: 2

MSI1
Total (peptides) [1]: 1 | Unique (peptides) [1]: 1 | Total (peptides) [5]: 2 | Unique (peptides) [5]: 2

MTCH1 [listing 1 of 2 here]
Total (peptides) [8]: 1 | Unique (peptides) [8]: 1

MTCH1 [listing 2 of 2 here]
Total (peptides) [5]: 1 | Unique (peptides) [5]: 1

MUC5B
Total (total peptides) [3]: 1 | Unique (unique peptides) [3]: 1

MYCBP2
Total (total peptides) [6]: 3 | Unique (unique peptides) [6]: 3

MYH14
Total (peptides) [5]: 1 | Unique (peptides) [5]: 1

MYO6
Total (peptides) [7]: 3 | Unique (peptides) [7]: 3

MYO19 [listing 1 of 2 here]
Total (peptides) [8]: 1 | Unique (peptides) [8]: 1

MYO19 [listing 2 of 2 here]
Total (peptides) [5]: 1 | Unique (peptides) [5]: 1

NIFK
Total: 4 | Unique: 4 | Total (peptides) [4]: 5 | Unique (peptides) [4]: 5

NIPBL
Total (total peptides) [2]: 19 | Unique (unique peptides) [2]: 18 | Total (peptides) [4]: 10 | Unique (peptides) [4]: 10

NLE1
Total (total peptides) [3]: 1 | Unique (unique peptides) [3]: 1

NONO
Total (peptides) [1]: 1 | Unique (peptides) [1]: 1

NPM1
Total: 3 | Unique: 3

NSD1
Total: 4 | Unique: 4 | Total (total peptides) [3]: 2 | Unique (unique peptides) [3]: 2

NUDT21
Total (total peptides) [6]: 4 | Unique (unique peptides) [6]: 4 | Total (peptides) [7]: 3 | Unique (peptides) [7]: 3

NUMA1
Total (total peptides) [2]: 44 | Unique (unique peptides) [2]: 42 | Total (peptides) [9]: 1 | Unique (peptides) [9]: 1 | Total (total peptides) [6]: 23 | Unique (unique peptides) [6]: 23 | Total (peptides) [4]: 31 | Unique (peptides) [4]: 29 | Total (total peptides) [3]: 1 | Unique (unique peptides) [3]: 1 | Total (peptides) [7]: 14 | Unique (peptides) [7]: 14

NUP188
Total: 2 | Unique: 2 | Total (total peptides) [6]: 8 | Unique (unique peptides) [6]: 8 | Total (total peptides) [3]: 1 | Unique (unique peptides) [3]: 1 | Total (peptides) [7]: 9 | Unique (peptides) [7]: 9

NUP205
Total (total peptides) [2]: 9 | Unique (unique peptides) [2]: 9 | Total (total peptides) [6]: 14 | Unique (unique peptides) [6]: 13 | Total (peptides) [4]: 4 | Unique (peptides) [4]: 4 | Total (peptides) [7]: 21 | Unique (peptides) [7]: 21

NUP210 [listing 1 of 2 here]
Total (peptides) [1]: 1 | Unique (peptides) [1]: 1

NUP210 [listing 2 of 2 here]
Total (total peptides) [3]: 1 | Unique (unique peptides) [3]: 1

NUP214
Total: 4 | Unique: 4 | Total (total peptides) [3]: 1 | Unique (unique peptides) [3]: 1 | Total (peptides) [5]: 1 | Unique (peptides) [5]: 1

PBRM1
Total (total peptides) [2]: 16 | Unique (unique peptides) [2]: 14 | Total (peptides) [4]: 10 | Unique (peptides) [4]: 9 | Total (peptides) [5]: 2 | Unique (peptides) [5]: 2

PCBP1
Total (peptides) [9]: 1 | Unique (peptides) [9]: 1 | Total (peptides) [1]: 2 | Unique (peptides) [1]: 2 | Total (total peptides) [3]: 1 | Unique (unique peptides) [3]: 1

PCID2
Total (peptides) [9]: 1 | Unique (peptides) [9]: 1 | Total (peptides) [1]: 2 | Unique (peptides) [1]: 2 | Total (peptides) [5]: 2 | Unique (peptides) [5]: 2

PDCD11
Total (total peptides) [2]: 26 | Unique (unique peptides) [2]: 26 | Total (peptides) [4]: 22 | Unique (peptides) [4]: 22

PELP1
Total (total peptides) [2]: 11 | Unique (unique peptides) [2]: 10 | Total (total peptides) [6]: 5 | Unique (unique peptides) [6]: 5 | Total (peptides) [4]: 3 | Unique (peptides) [4]: 3 | Total (peptides) [5]: 2 | Unique (peptides) [5]: 2

PES1
Total (total peptides) [2]: 11 | Unique (unique peptides) [2]: 9

PHB2
Total (peptides) [5]: 2 | Unique (peptides) [5]: 2

PHF3
Total (total peptides) [6]: 6 | Unique (unique peptides) [6]: 6 | Total (peptides) [7]: 4 | Unique (peptides) [7]: 4

PHIP
Total (total peptides) [2]: 18 | Unique (unique peptides) [2]: 17 | Total (peptides) [4]: 12 | Unique (peptides) [4]: 11

PHRF1
Total: 2 | Unique: 2

PI4KA
Total (peptides) [5]: 1 | Unique (peptides) [5]: 1

PKM
Total (peptides) [1]: 3 | Unique (peptides) [1]: 2 | Total (peptides) [4]: 3 | Unique (peptides) [4]: 3

PLEC
Total (total peptides) [3]: 2 | Unique (unique peptides) [3]: 2

PNN
Total (total peptides) [2]: 67 | Unique (unique peptides) [2]: 25 | Total (peptides) [4]: 16 | Unique (peptides) [4]: 11
